# Some of the results follow.
# Target: T1, OsSMF1 (Oryza sativa, UniProt Q6ZLB0 1-436)
# T1 sequence: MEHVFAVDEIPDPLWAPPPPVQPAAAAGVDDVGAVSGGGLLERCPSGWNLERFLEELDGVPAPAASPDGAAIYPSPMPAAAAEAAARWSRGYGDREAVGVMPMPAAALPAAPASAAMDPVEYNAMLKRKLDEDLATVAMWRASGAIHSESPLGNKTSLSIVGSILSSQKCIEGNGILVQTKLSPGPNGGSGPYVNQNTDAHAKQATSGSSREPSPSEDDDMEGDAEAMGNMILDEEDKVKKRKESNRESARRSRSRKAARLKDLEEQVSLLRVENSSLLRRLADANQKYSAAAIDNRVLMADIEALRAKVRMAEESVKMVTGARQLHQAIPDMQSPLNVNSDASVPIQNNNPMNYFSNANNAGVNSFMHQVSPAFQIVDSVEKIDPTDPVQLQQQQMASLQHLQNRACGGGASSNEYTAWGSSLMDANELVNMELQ
# Assay: protein-binding microarray (RPBM); PBS, 2% BSA, 51.3 ng/ul salmon testes DNA, 50 uM zinc acetate, 200 nM TF, 25 C, 1 h; high values mean tight binding
# Details: protein: recombinant; tags: N-terminal polyhistidine and DsRed monomer fusion (pET32a); chain copies: 2; label: CyDye5-dUTP incorporated in the synthesized complementary strand; 3' TTTTT single-stranded linker to array surface; dsDNA, one strand shown
# Summary of the method: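 The binding signal for each feature is its fluorescence intensity in arbitrary units. An Axon 4000B scanner was used to read a custom Agilent array that had been made double-stranded with Cy5-dUTP primer extension, blocked with 2% BSA, incubated at 25 °C for 1 h with 200 nM protein in PBS, 2% BSA, salmon testes DNA and 50 µM zinc acetate, and washed. The protein was an N-terminal polyhistidine–DsRed transcription factor fusion from E. coli BL21-CodonPlus, purified on Ni–NTA.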
row,Sequence,binding signal
1,AGAGGAAGTACAGACACATTTTCATCAGGATGTTGTATTGCGGAGTCACCTAGTGCAG,24700 fluorescence intensity (a.u.)
2,CTACATATCAGGTGTCCACGTCACCCTCTCTCTTTCCCCTCGGAGTCACCTAGTGCAG,37200 fluorescence intensity (a.u.)
3,CCGGTCGGTACTAGTTCGGGGCGTGACACATGGTAGTTATCGGAGTCACCTAGTGCAG,4000 fluorescence intensity (a.u.)
4,AATATGATAATGCTATTGTTCACACACGAATGTCGACGTGCGGAGTCACCTAGTGCAG,3530 fluorescence intensity (a.u.)
5,CATTTGACCGTGGTCTTGCCTACGTGGCACGCCACGTGAACGGAGTCACCTAGTGCAG,31800 fluorescence intensity (a.u.)
6,CATCATTGCTGCTGCTCTGCCATCGTCGCGCGCACACACGCGGAGTCACCTAGTGCAG,4030 fluorescence intensity (a.u.)
7,TGAACTGTAGAAGCGCCCTTGTCTATGAACTTGTTTGGACCGGAGTCACCTAGTGCAG,3630 fluorescence intensity (a.u.)
8,TCACTTTTAAAATATTTGTCAATCAAATGTGATGACTACACGGAGTCACCTAGTGCAG,3200 fluorescence intensity (a.u.)
9,ATCAGCATTTCGCCTTTCGTCGTCGTCGTCATCATCCACTCGGAGTCACCTAGTGCAG,6320 fluorescence intensity (a.u.)
10,GCCTCCCCGCGCCTTGCTGCCACCGACTGGGCGACGCCGACGGAGTCACCTAGTGCAG,3310 fluorescence intensity (a.u.)
11,GAGGCAAAGGCAACACGTCCGCACGCCCGCCGACCACCTCCGGAGTCACCTAGTGCAG,3840 fluorescence intensity (a.u.)
12,CTTGTTAGTGGATGATGATGTGGCATCCTTGTATGTTAAGCGGAGTCACCTAGTGCAG,19800 fluorescence intensity (a.u.)
13,TGCTTACAGCGAAGCCATGCAGATTGCAGGCAGGCAGGCACGGAGTCACCTAGTGCAG,20500 fluorescence intensity (a.u.)
14,GTGGGTCGATGATGACGAGATCCTCCCAACAGCCCCACCCCGGAGTCACCTAGTGCAG,3780 fluorescence intensity (a.u.)
15,GGCTCTCCTCCGGCCGCCACGTCGCCGGCTCCGGCCAGCACGGAGTCACCTAGTGCAG,9580 fluorescence intensity (a.u.)
16,GCCTACCCGCCGGAATCTTGCGTCATCTGGCGGCCGCCGCCGGAGTCACCTAGTGCAG,6110 fluorescence intensity (a.u.)
17,CGGCGGTGGGCCGGATCCAGACGCGTGGAGTCGGGACCGGCGGAGTCACCTAGTGCAG,3240 fluorescence intensity (a.u.)
18,ATGCATGCATATATGTAGGTGTAGATAATAATAATTTCACCGGAGTCACCTAGTGCAG,5710 fluorescence intensity (a.u.)
19,ATTCGTCTGCGCTGCCCCGCGGCGGTGGCGGTGACGGTGGCGGAGTCACCTAGTGCAG,4150 fluorescence intensity (a.u.)
20,CTCCACTTAAAATGGGAGTAGAGCTAGGTGGAGCGTTCTCCGGAGTCACCTAGTGCAG,5420 fluorescence intensity (a.u.)
21,AAAGGCCCAACCCAGTTGATCCTGGGCCATTATCCCGTCACGGAGTCACCTAGTGCAG,3160 fluorescence intensity (a.u.)
22,TCCTCCCGGTGTGCCGGAACACCGTCACCTGGATCCGCAACGGAGTCACCTAGTGCAG,3610 fluorescence intensity (a.u.)
23,TATCCCGTGCTAGTGTATACGTGCTTACGTGCTAGTTAGTCGGAGTCACCTAGTGCAG,4120 fluorescence intensity (a.u.)

# Copied from the list:
# Entry of CGGCGGTGGGCCGGATCCAGACGCGTGGAGTCGGGACCGGCGGAGTCACCTAGTGCAG under binding signal: 3240 fluorescence intensity (a.u.)
# Entry of AGAGGAAGTACAGACACATTTTCATCAGGATGTTGTATTGCGGAGTCACCTAGTGCAG under binding signal: 24700 fluorescence intensity (a.u.)
